Reference: PubChem BioAssay AID743454 (Peter MacCallum Cancer Centre, 2014)

Purpose: 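Search for knock-downs that restore vorinostat killing in resistant colon cancer cells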 (primary screen)
System: human HCT116-VR colon cancer cells, selected for vorinostat resistance
Knock-down reagent: siRNA pool against human genes, 40 nM siRNA pool
Timing: vorinostat for 24 h, read-out about 72 h after transfection
Treatment: vorinostat at 2.5 µM final
Read-out: 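Two measures, CellTiter-Fluor viability and luminescent caspase 3/7 activity, each as fold change against same-plate mock wells, mean of duplicates, then screen-wide robust z-score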
Reading the numbers: viability robust z-score: higher = more viable cells than screen typical; caspase robust z-score: higher = more caspase 3/7 activity than screen typical
Hit rule: 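Hits are knock-downs in viability class RV1/RV2 or caspase class CA1/CA2, excluding ones that killed cells in the no-drug cell-count arm; hits then retested with single siRNAs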
In all, the deposit lists about 18,000 reagents; shown is a random part of them. 450 of all reagents (2.5%) were called active. 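Single biological run; no consistent viability z cut-off exists, so the class columns, not z-scores, define the calls.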

SPMIP10 (sperm microtubule inner protein 10) showed viability hit class no change; caspase hit class no change; viability robust z-score 0.52; caspase robust z-score -0.52; inactive.
For YDJC (YdjC chitooligosaccharide deacetylase homolog), the entry reads viability hit class no change; caspase hit class no change; viability robust z-score 0.56; caspase robust z-score 0.29; inactive.
With knock-down of CDK16 (cyclin dependent kinase 16) the results were viability hit class no change; caspase hit class no change; viability robust z-score -0.22; caspase robust z-score -0.36; inactive.
Knock-down of OPRK1 (opioid receptor kappa 1) gave: viability hit class no change; caspase hit class no change; viability robust z-score -1.54; caspase robust z-score -0.32; inactive.
NUDT21 (nudix hydrolase 21) gave viability hit class no change; caspase hit class no change; viability robust z-score -0.74; caspase robust z-score 0.5; inactive.
CPE (carboxypeptidase E) scored viability hit class no change; caspase hit class no change; viability robust z-score 0.58; caspase robust z-score -0.66; inactive.
EPC1 (enhancer of polycomb 1) gave viability hit class no change; caspase hit class no change; viability robust z-score 0.54; caspase robust z-score -0.37; inactive.
GPR153 (G protein-coupled receptor 153) showed viability hit class no change; caspase hit class no change; viability robust z-score -2.37; caspase robust z-score 2.07; inactive.
Silencing of ITGB3BP (integrin subunit beta 3 binding protein) resulted in: viability hit class no change; caspase hit class no change; viability robust z-score 0.28; caspase robust z-score -0.26; inactive.
For COX16 (cytochrome c oxidase assembly factor COX16), the values are viability hit class no change; caspase hit class no change; viability robust z-score 0.44; caspase robust z-score 1.95; inactive.
After knock-down of PPP2R2D (protein phosphatase 2 regulatory subunit Bdelta), the screen gave viability hit class no change; caspase hit class no change; viability robust z-score 0.24; caspase robust z-score 0.01; inactive.
LURAP1 (leucine rich adaptor protein 1) scored viability hit class no change; caspase hit class no change; viability robust z-score 0.52; caspase robust z-score 0.29; inactive.
For TMPRSS9 (transmembrane serine protease 9), the entry reads viability hit class no change; caspase hit class no change; viability robust z-score 0.13; caspase robust z-score 0.12; inactive.
Against SLC22A15, the values are viability hit class no change; caspase hit class no change; viability robust z-score -1.15; caspase robust z-score 1.23; inactive.
Against MLN (motilin), the entry reads viability hit class no change; caspase hit class no change; viability robust z-score -0.14; caspase robust z-score 0.28; inactive.
With knock-down of HCG27 (HLA complex group 27), the record shows viability hit class no change; caspase hit class no change; viability robust z-score -0.35; caspase robust z-score 2.21; inactive.
For KLHDC3 (kelch domain containing 3), the entry reads viability hit class no change; caspase hit class CA2 (caspase activation); viability robust z-score 0.52; caspase robust z-score 5.96; active.
With knock-down of JRK (Jrk helix-turn-helix protein), the screen gave viability hit class no change; caspase hit class no change; viability robust z-score -0.83; caspase robust z-score -0.83; inactive.
Against LBR (lamin B receptor) the deposit lists viability hit class no change; caspase hit class no change; viability robust z-score 0.19; caspase robust z-score 0.87; inactive.
For CBY2 (chibby family member 2), the values are viability hit class no change; caspase hit class no change; viability robust z-score 0.7; caspase robust z-score 1.7; inactive.
After knock-down of LRRC74A (leucine rich repeat containing 74A), the record shows viability hit class no change; caspase hit class no change; viability robust z-score 0.86; caspase robust z-score -0.97; inactive.
